The record followed here is patent publication US20110182886A1.

Sequences of proteins named here, by UniProt entry; tags and fusion partners are left off. A change or cut given only in a name is not applied to a line headed by its entry. Residues count along the entry.
UniProt P46531, residues 19-2555: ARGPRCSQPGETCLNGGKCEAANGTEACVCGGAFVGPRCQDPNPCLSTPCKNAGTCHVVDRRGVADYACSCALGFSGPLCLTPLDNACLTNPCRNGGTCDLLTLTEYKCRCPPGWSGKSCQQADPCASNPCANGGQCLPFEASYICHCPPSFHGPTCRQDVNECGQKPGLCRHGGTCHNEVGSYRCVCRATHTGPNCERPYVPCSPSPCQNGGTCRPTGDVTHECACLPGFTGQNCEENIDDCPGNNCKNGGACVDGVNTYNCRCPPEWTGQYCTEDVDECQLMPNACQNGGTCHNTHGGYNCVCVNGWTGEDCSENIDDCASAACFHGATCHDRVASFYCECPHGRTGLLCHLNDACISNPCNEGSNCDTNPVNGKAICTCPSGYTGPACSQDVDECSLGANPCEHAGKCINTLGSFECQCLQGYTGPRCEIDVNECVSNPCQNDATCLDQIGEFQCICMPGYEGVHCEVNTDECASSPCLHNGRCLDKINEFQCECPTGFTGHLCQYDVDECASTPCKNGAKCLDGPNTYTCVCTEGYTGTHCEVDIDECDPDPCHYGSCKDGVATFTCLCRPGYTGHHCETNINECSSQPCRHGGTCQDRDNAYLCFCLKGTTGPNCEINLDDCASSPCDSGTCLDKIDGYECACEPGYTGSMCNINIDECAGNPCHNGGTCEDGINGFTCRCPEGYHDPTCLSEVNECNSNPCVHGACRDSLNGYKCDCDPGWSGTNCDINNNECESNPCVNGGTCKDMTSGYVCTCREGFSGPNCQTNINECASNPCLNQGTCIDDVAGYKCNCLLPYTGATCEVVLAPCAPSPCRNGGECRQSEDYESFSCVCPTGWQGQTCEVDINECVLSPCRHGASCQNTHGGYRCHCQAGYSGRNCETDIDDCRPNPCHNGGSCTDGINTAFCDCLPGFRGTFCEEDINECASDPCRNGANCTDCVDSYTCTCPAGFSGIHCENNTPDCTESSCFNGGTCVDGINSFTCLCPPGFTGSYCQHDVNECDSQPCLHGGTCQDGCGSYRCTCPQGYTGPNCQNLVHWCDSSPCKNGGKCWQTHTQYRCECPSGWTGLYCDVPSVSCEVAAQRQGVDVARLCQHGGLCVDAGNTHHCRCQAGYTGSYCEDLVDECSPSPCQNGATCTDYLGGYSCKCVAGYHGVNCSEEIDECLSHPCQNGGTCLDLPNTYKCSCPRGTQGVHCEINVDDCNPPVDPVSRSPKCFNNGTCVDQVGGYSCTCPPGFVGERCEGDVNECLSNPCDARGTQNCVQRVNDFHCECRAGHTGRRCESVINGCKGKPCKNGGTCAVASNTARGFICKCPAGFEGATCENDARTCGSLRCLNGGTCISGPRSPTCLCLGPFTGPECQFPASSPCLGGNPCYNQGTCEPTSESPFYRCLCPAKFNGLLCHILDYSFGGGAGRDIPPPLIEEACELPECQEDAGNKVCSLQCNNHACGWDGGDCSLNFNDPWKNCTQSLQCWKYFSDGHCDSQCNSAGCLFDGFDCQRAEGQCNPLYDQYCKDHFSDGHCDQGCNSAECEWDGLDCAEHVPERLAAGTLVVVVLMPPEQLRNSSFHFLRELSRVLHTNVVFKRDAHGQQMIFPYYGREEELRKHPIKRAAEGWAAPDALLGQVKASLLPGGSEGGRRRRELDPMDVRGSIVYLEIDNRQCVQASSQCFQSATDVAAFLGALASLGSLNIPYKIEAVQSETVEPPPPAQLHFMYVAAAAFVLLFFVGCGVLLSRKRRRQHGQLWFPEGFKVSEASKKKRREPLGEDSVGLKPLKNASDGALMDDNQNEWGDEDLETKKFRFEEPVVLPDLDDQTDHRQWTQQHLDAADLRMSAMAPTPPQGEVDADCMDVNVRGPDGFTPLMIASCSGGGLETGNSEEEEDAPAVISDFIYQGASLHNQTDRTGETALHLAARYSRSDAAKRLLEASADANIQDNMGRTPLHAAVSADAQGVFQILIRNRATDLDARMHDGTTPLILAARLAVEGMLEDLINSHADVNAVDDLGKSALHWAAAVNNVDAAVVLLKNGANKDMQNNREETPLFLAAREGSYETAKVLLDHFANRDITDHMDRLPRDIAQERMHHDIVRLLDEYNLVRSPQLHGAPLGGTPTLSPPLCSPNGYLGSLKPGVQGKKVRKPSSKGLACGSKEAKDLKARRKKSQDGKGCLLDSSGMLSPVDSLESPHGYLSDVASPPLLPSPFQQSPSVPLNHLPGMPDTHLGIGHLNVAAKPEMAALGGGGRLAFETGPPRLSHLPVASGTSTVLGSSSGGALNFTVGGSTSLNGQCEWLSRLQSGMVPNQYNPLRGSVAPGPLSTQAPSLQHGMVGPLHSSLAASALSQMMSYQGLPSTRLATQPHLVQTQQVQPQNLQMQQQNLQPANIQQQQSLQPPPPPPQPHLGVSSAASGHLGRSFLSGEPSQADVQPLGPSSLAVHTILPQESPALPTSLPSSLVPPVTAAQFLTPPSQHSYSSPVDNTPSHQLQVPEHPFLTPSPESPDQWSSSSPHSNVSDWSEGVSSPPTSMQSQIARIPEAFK
UniProt O60939: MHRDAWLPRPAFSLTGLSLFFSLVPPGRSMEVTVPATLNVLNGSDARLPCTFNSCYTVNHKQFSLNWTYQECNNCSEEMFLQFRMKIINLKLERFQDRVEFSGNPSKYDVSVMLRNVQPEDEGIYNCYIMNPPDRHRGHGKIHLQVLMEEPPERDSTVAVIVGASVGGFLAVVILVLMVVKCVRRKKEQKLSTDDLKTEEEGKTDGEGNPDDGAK

Assay [1] has as its target Notch1 ECD fragment containing EGF repeats 10-21, C-terminal FLAG tag (Homo sapiens (Human)) (UniProt P46531). Kind of assay: Ni-NTA pull-down, α-FLAG immunoblot (figure legend).
Assay [2] has the same target. As to the kind of experiment: Ni-NTA pull-down of HIS8 β2 ECD with FLAG-tagged Notch1 fragment, α-FLAG immunoblot.
The target of assay [3] is endogenous Notch1 of SW620 cells (human) (UniProt P46531). As to the kind of experiment: co-immunoprecipitation with α-β2 monoclonal antibodies from full-length β2-transfected SW620 lysates, Notch1 immunoblot. (In general: In western blotting, separated proteins are transferred to a membrane and probed.)
The target is the same in assay [4]. As to the kind of experiment: co-immunoprecipitation, immunoblot with Notch1 polyclonal antibody G20 (figure legend).

These are yes or no findings as the source states them, for the method shown. Binding seen in cells or lysates may run through a third protein. Some binding calls cover weakened binding; strength is not graded here.

“C-terminal polyhistidine-tagged (HIS8) human β2 ECD (SCN2B.ECD.HIS), secreted from CHO cells (from UniProt O60939 30-159) (ligand)”: the binding entry in assay [1] and in assay [2] was “binds” throughout.

With “full-length β2 (SCN2B) expressed in cells (from UniProt O60939 30-215) (ligand)”, the binding result in assay [3] and in assay [4] was “binds” each time.
